These results are taken from patent publication US20250034527A1.

Sequences of proteins named here, by UniProt entry; tags and fusion partners are left off. Residues count along the entry.
UniProt Q9ULV1, residues 40-161: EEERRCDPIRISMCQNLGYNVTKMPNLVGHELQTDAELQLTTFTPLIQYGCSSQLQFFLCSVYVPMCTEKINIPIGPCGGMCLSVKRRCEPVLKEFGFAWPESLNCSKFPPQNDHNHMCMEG

In this test the target is Fzd4 CRD (human) (UniProt Q9ULV1). The experiment in a line: summary statement of specificity in Example 1.

Results are given in words; binding and its absence hold for the method and conditions named. Some entries that bind do so weakly or less than the wild type.

B1: 4AF30 (designed binder)
chain: SELGKRLIRAALDGNKDRVKDLIENGADVNASLMSGTTPLYAAAMNGHKEVVKLLISKGADVNAQSVAGSTPLVAAANFGHNEVVKLLISKGADVNAVTAFGVTPLHAAAADGHKEVVKLLISKGADVNAKAGRGMTPLHIAAFRGHKEVVKLLISKGADLNTSAKDGATPLDMARESGNEEVVKLLEKQLE
As for B1, the binding result is on record as “binds”.
